System: HCC827 NSCLC xenografts
Experiment: TTF-1 staining of HCC827 xenografts expressing Beclin 1 constructs
Format: in vivo, mouse
Settings: pathological score

Substance	xenografts strongly positive for TTF-1	xenografts moderately positive for TTF-1	xenografts weakly positive for TTF-1
Beclin 1: wild-type human Beclin 1, essential autophagy and tumor suppressor protein; expressed in cells	10/10	–	–
Flag-Beclin 1 EEE: Flag-Beclin 1 with three phosphomimetic mutations Y229E/Y233E/Y352E	–	3/10	7/10
Flag-Beclin 1 FFF: Flag-Beclin 1 with three non-phosphorylatable mutations Y229F/Y233F/Y352F	10/10	–	–

Source: patent US9671412B2, “Beclin 1 phosphorylation” (Board of Regents, The University of Texas System, priority 2012, dated 2017)
